Results on one substance are retold here after PMC11723354.

No constants are given. Whether binding was seen depends on the method and setting. Tags and fused reporters may be left off the sequences shown.

The assay has as its target T1, PRR1, yeast two-hybrid fusion (UniProt Q689G9).
T1 sequence: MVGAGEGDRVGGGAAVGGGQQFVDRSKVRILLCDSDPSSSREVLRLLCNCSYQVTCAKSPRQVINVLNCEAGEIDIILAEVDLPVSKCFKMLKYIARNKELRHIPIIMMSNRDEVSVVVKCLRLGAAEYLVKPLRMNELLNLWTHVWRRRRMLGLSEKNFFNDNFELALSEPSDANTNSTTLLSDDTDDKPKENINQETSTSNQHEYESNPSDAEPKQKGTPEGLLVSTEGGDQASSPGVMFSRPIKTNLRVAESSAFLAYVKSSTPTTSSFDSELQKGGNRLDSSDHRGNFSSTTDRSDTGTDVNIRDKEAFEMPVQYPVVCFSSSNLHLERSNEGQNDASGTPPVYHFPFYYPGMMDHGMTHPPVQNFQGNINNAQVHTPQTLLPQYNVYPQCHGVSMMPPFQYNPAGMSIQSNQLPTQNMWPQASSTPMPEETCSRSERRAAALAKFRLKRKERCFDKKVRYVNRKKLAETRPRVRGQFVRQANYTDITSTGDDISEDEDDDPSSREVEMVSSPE
Briefly: two-hybrid; yeast two-hybrid, AD and BD fusions; yeast grew at 30 °C for 3 days; empty vectors as negative controls.

Regarding “Oryza sativa BBX2 (OsBBX2), yeast two-hybrid fusion (rice (Oryza sativa))”, the binding result is listed as “no binding”.
